Results from PMC8201768.
No constants are given. Whether binding was seen depends on the method and setting.

Biological target: Sgo_R3-4 (tandem SHIRT repeats 3 and 4 of Sgo_0707, residues 621 through 789) (S. gordonii strain Challis (substrain DL1)) (UniProt A8AW49)
Assay: SEC; SEC inline with SAXS (Shodex KW-203.5 column), 20 mM Tris-HCl, 150 mM NaCl, 3 mM KNO3, 5 mM β-mercaptoethanol, pH 7.5; each protein injected at 7.5 mg/mL; both purified

Q: How did the binding turn out when “Sgo_R3-4 (tandem SHIRT repeats 3 and 4 of Sgo_0707, residues 621 through 789) (from UniProt A8AW49 621-789) (domain or fragment)” was run?
A: The binding was “no binding (tested: 7.5 mg/mL)”.
